Drawing on article PMC12429265, this text covers binding for five molecules.

Protein sequences, listed by entry. Tags and fused reporters are not part of them.
UniProt Q9VXE6: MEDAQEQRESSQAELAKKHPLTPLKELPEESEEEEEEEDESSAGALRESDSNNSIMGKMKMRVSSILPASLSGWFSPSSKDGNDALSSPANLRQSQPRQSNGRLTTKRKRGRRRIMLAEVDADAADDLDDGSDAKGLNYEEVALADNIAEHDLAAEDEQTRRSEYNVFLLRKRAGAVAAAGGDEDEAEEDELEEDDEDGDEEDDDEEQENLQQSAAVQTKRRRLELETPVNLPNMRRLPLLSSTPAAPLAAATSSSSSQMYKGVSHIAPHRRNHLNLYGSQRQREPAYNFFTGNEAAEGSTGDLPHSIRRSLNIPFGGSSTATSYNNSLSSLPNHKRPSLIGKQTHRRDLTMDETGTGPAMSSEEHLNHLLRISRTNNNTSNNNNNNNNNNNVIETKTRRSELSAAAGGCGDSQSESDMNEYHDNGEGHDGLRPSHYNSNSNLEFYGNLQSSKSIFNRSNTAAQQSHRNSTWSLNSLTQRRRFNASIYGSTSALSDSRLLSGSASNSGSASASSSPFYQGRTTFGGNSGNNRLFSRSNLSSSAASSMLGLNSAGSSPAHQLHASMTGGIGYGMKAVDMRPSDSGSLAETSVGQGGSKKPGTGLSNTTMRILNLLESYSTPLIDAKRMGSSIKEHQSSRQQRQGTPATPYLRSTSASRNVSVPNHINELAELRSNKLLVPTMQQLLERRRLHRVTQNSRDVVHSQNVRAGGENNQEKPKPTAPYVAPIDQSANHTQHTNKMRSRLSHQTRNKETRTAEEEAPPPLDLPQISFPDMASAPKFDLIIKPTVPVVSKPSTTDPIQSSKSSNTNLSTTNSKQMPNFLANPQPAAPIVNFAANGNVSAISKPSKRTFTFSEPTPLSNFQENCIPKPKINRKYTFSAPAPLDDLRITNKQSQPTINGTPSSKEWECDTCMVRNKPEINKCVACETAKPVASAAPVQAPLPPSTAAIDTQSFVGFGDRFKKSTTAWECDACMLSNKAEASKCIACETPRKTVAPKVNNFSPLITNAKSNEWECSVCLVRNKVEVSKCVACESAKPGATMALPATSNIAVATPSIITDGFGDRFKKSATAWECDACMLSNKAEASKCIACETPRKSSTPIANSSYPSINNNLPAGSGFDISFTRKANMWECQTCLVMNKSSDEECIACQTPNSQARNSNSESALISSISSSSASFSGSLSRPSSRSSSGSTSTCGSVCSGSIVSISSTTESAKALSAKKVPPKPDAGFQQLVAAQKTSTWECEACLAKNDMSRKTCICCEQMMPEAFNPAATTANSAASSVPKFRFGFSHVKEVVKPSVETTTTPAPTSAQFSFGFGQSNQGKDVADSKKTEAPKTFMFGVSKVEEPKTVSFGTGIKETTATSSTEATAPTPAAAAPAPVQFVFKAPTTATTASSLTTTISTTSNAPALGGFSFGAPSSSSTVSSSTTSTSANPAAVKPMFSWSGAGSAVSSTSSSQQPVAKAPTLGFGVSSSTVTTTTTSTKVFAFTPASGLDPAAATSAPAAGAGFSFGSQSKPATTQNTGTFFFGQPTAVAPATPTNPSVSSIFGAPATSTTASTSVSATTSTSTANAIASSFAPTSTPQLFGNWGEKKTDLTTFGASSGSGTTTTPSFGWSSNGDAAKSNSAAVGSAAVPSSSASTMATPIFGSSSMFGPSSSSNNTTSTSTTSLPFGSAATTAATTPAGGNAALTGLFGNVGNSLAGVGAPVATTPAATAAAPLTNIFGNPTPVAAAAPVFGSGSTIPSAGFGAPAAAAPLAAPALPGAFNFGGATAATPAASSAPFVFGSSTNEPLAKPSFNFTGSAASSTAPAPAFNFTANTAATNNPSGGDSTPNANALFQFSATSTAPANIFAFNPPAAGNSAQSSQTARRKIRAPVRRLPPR

No constants are given. Whether binding was seen depends on the method and setting. In cells and extracts the contact can be indirect. Some binding calls cover weakened binding; strength is not graded here. For part of these data: Where a sequence is shown, tags or fusion partners need not be part of it.

Test [1] deals with T1, HA-tagged N-TPR (1-1115 aa) (Drosophila) (UniProt A1Z8P9).
T1 sequence: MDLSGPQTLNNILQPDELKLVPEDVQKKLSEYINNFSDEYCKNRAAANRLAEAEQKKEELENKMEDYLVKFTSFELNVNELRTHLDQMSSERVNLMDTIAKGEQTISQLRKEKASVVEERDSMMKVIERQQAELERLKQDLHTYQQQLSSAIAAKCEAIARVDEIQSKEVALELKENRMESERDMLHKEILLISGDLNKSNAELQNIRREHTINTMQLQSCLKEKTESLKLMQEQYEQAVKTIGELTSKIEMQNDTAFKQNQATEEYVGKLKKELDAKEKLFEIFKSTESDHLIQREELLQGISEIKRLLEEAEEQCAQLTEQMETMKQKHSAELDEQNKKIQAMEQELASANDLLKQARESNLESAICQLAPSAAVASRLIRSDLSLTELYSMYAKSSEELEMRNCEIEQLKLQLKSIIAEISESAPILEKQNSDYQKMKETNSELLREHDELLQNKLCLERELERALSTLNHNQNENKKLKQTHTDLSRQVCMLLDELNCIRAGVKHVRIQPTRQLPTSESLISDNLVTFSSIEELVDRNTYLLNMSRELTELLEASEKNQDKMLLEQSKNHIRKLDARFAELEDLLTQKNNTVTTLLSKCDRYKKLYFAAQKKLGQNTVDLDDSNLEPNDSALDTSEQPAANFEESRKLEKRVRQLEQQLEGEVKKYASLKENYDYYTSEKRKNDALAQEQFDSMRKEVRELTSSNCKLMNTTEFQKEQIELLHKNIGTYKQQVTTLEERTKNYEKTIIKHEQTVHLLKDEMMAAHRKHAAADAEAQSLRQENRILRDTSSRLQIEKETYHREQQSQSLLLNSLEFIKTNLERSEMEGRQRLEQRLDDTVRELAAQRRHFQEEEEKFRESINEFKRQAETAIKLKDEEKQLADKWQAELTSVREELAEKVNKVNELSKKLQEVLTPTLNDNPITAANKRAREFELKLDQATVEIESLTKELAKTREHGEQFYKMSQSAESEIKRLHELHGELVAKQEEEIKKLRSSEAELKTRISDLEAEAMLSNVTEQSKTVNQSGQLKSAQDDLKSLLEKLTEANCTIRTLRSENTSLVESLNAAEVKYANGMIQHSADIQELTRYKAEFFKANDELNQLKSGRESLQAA
Nature of the test: co-IP; called pull-down assay; FLAG-tagged TREX-2 subunits co-expressed in pairs with HA-tagged Nup153 or TPR fragments in S2 cells for 4 days; lysis in 10 mM HEPES pH 7.9, 5 mM MgCl2, 0.5% NP-40, 0.45 M NaCl, 1 mM DTT; extract treated with DNase I and RNase; anti-FLAG M2 agarose or anti-HA agarose; Western blot.

In test [2] the target is TPR/Megator (Drosophila (endogenous in embryos)) (UniProt A1Z8P9). Nature of the test: co-IP; endogenous proteins; nuclear extract from 0 to 12 h Drosophila embryos treated with DNase and RNase; polyclonal antibodies against TREX-2 subunits, Nup153 or TPR on protein A-Sepharose; IP buffer 25 mM Tris-HCl pH 7.9, 10% glycerol, 0.1% NP-40, 0.5 mM DTT, 5 mM MgCl2, 100 mM KCl; washes with 500 mM KCl and 100 mM KCl; Western blot. (Immunoblotting shows a protein as a band on a membrane.)

Test [3] deals with HA-tagged Nup153 (Drosophila) (UniProt Q9VXE6). Nature of the test: co-IP; called pull-down assay; FLAG-tagged TREX-2 subunits co-expressed in pairs with HA-tagged Nup153 or TPR fragments in S2 cells for 4 days; lysis in 10 mM HEPES pH 7.9, 5 mM MgCl2, 0.5% NP-40, 0.45 M NaCl, 1 mM DTT; extract treated with DNase I and RNase; anti-FLAG M2 agarose or anti-HA agarose; Western blot.

B1: FLAG-tagged PCID2 (protein, UniProt Q9VTL1 1-395)
chain: MFGTVNNYLSGVLHAAQDLDGESLATYLSLRDVHVQNHNLYIAQPEKLVDRFLKPPLDEVVSAHLKVLYHLAQEPPGYMEAYTQQSAACGAVVRLLQQLKDENWCLPLMYRVCLDLRYLAQACEKHCQGFTPGHVLEKAADCIMACFRVCAADGRASEEDTKRLGMMNLVNQLFKIYFRINKLHLCKPLIRAIDNCIFKDSFPLPEQITYKYFVGRRAMFDSNYQAAVQYLSYAFSNCPDRFASNKRLILIYLVPVKMLLGYLPSKSLLQRYDLLLFLDLAMAMKAGNVNRFDEIVRDQELVLIRSGIYLLVEKLKFLVYRNLFKKVFVIRKSHQLDMGDFLSALHFVGLTDVSLDETHCIVANLIYDGKIKGYISHAHNKLVVSKQNPFPSVSL
As for B1, in test [1], the binding result is “binds weakly”.

B2: PCID2 (protein, UniProt Q9VTL1 1-395)
chain: B1 chain
As to B2, the binding result in test [2] was “binds weakly”.

B3: FLAG-tagged ENY2 (protein, UniProt Q9VYX1 1-101)
chain: MSTSGAVDQYTVLTGDRSKIKDLLCSRLTECGWRDEVRLMCRNILMEKGTNNSFTVEQLIAEVTPKARTLVPDAVKKELLMKIRTILTEIEEEPDEPEDES
Regarding B3, the binding result in test [1] is “binds weakly”; in test [3], “binds”.

B4: FLAG-tagged Xmas-2 (protein, UniProt Q9U3V9-1 1-1370)
chain: MAEPRPGGYNYKTLLCRNIPELFLDKYVARSHFGRFGTLVNFVLRPRRMTCTVSYASEDEAARALLDGASFQGHLFDISYADNETAPAQKTEEWVDPDIQAELSALQSGWRNEYGSGKPIKKPQNGSSGSGGSSMLPAIPVGPATAPVSRDRTPAQLRDLENMMRRPAHTSEEKFSVLDARDKLLRLNRTQHKLSGATQGHCADMCPEKERVLREFQRQVAYYELQPGSDELICHERALKQYSRSSADQETPLPHELRNETALHMTMSYLMHEIMDISERQDPQSHMGDWFHFVWDRTRSIRKEITQQELCSLGAVKLVEQCARFHIHCAARLVDADPSVFDSKINAENLTKCLQTLKYMYHDLRIKGVPCPKEAEFRGYIVLLNLADANFLWDIGQLPAELQSCPEVRQAIQFYLALQDTNFVRFFQLLADKDTSYLSACILVNYFTRLRVLGLHRLIQAYRSPRKDEVSSLPLSYIAELLSFASEQEAADFVQHYGLQINEAGRVVLSRMHTVETEYKLPRQYELVEVKRVKSVGEVVSGEPLPPRDLYLNHRPHNSFDDYGMLKSIAWTAKDQLAGMQQEEMQPQMPSQPPAVSKHSDTLFKVPMQPDGTAAGFGVFAAAAVPPASSIDGFSFVLPKSRAQEFQEQAPATQQRRAQEEAKHQALQVAIAAAKKREAELMAIHEAKVAEAERVRQQKLRERQEQQRRQQQELEEQRQREQEKLQLEKERQLKLEQLFFVQQQEREAHKQTRTLELYQEIFQDTLAEICQSEFMSHSRACRSYESMLDSITRDLVERQMEQSIYELGVMRVCIRRWRKYRRTQQEKDTLFNQLPLSFGAENPEGVVNKRSMEDSLRLSRRYRLGEPCDYGKLLAGLEEHSWLKLDLWHVLDKCLPVAQPGARRFYKLLISLSGGQEGLQLNCDLDRGLLQQPQSPDARFVDGGYIRGFSQGIGLSVMKIRDDDHDWKATDLAEANGIICLIGLDDIRLLPDRLKPLLQASRCHDVAVIVQHPANTAFVQPDIPLQELCLRSFNIFRLRKSGNNRQRLMIALESAVKFLAKATERKRVGHLHQVETREYLLVNLGSELFRRLKYAAEHDTAIRSDTQLNPQRCVDLFNEAVHRLQLVAGEDLSDWPQFPEELRVFVQPLPIESSLNTNRLEHFEPGWHLPERRQRIVQLLERCKLPKMPVLPRSSSLAEAQCQWVLDYAQISQQEDCVEQIALQAIKILQYDTDDYLNFVEYLAGERMQYILRQERNPPQGIVYNTKTLKRRFLSAWYYEFREPQIYEPVPAEENAQMLEKQPSSQAEVQQLDFDEITSKAEAVLKRFHQRQDERHTLRELNRSHKSRKRRDASDHKHASKHKRKRSKSK
For the molecule B4, the binding result in test [1] is reported as “binds weakly”.

B5: Xmas-2 (protein, UniProt Q9U3V9-1 1-1370)
chain: B4 chain
For B5, in test [2], the binding result was “binds weakly”.
